# Experimental data from publication PMC7819943, “Rice protein-binding microarrays: a tool to detect cis-acting elements near promoter regions in rice”.
# By UniProt entry, the sequences of proteins in these tests, tags left out.
# UniProt Q0JBA9, entry or part of it: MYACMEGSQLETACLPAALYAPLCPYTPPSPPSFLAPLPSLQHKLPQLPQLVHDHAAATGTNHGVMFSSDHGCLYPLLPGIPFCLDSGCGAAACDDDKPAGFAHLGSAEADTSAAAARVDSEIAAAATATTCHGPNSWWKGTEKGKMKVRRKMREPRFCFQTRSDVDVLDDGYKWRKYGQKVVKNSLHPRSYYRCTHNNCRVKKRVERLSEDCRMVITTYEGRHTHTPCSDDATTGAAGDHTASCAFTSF
# This is one part of the list.
# Target: OsWRKY34 (Oryza sativa, UniProt Q0JBA9 1-250)
# Experiment: protein-binding microarray (RPBM); PBS, 2% BSA, 51.3 ng/ul salmon testes DNA, 50 uM zinc acetate, 200 nM TF, 25 C, 1 h; high values mean tight binding
# Details: protein: recombinant; tags: N-terminal polyhistidine and DsRed monomer fusion (pET32a); label: CyDye5-dUTP incorporated in the synthesized complementary strand; 3' TTTTT single-stranded linker to array surface; dsDNA, one strand shown
# Outline: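 For the binding signal, per-feature fluorescence intensity was read in arbitrary units on an Axon 4000B scanner. Before scanning, a 2% BSA-blocked custom Agilent array made double-stranded with Cy5-dUTP was washed after 1 h at 25 °C with 200 nM protein and 50 µM zinc acetate. The proteins were Ni–NTA-purified transcription factors with N-terminal polyhistidine and DsRed fusions, expressed in E. coli BL21-CodonPlus.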
row,Sequence,binding signal
1,TTTGAGGCTAAAACCCTACTTATCCTTCTCCAATTATCTTCGGAGTCACCTAGTGCAG,8990 fluorescence intensity (a.u.)
2,AGATGCTCCCTGTTCCATCCTCCACGAATTTCCTTTGCCTCGGAGTCACCTAGTGCAG,8250 fluorescence intensity (a.u.)
3,CTTAAACTGGCATGACTTGTGTGTTTCTTTCCTTTTTCCTCGGAGTCACCTAGTGCAG,10700 fluorescence intensity (a.u.)
4,CATGCAGTATAAAAACACACTGCTGACTTTGTTTGACTATCGGAGTCACCTAGTGCAG,10200 fluorescence intensity (a.u.)
5,CACTTTAAGACTGTGTTTGTTCAAGTGGGTTGGGAACTCACGGAGTCACCTAGTGCAG,9900 fluorescence intensity (a.u.)
6,ATATTTCTGTCGCGGAGGGGCTTTTTTGCAAAATAGGAAACGGAGTCACCTAGTGCAG,10900 fluorescence intensity (a.u.)
7,CCATCACACTCACTGCCTCTTGTGCCACTCTCTCGCTTGCCGGAGTCACCTAGTGCAG,9770 fluorescence intensity (a.u.)
8,CTCACTCCACCACTCCGGTTTTATACTCCTCCTATCTCTCCGGAGTCACCTAGTGCAG,8610 fluorescence intensity (a.u.)
9,ACTTCTGCCGCGCCATTTTTGTCACCCCAGGTTTGCTGCCCGGAGTCACCTAGTGCAG,9040 fluorescence intensity (a.u.)
10,CAGCATCATCCTTTCGCTTATGCTTATATTTATCAGCCAACGGAGTCACCTAGTGCAG,8940 fluorescence intensity (a.u.)
11,TATTGTATTGGGTTGGGCCTTTGTGGTTGTCTAATGAAGTCGGAGTCACCTAGTGCAG,22300 fluorescence intensity (a.u.)
12,CTTCCAATTTCCCATCGCCCCGTCGCCGACTCGCCGTCTCCGGAGTCACCTAGTGCAG,10800 fluorescence intensity (a.u.)
13,CCAACACACATGTACTCGTGGATTCCGTAGTCGTCGTCATCGGAGTCACCTAGTGCAG,8280 fluorescence intensity (a.u.)
14,CACTCGTCAGGCGTCCCACTGCTCCGCTGCTATAAGAAACCGGAGTCACCTAGTGCAG,10100 fluorescence intensity (a.u.)
15,ATGGATGGTGGGGAATAATGCATATGTTACAGCGATTTAACGGAGTCACCTAGTGCAG,12300 fluorescence intensity (a.u.)
16,TTCCCGCATGCACAACGACAACCCTCCTGTGTGCACGTTACGGAGTCACCTAGTGCAG,8390 fluorescence intensity (a.u.)
17,CTCTGCTTTGCGTGGGCACTGTTTAACCATTTTGTCATGTCGGAGTCACCTAGTGCAG,8370 fluorescence intensity (a.u.)
18,GTTATAGCGCATCTATCAATCGTACTAAATTTCATTGTCCCGGAGTCACCTAGTGCAG,8450 fluorescence intensity (a.u.)
19,CTCGCTGCGGCACTGCCATTTTCCATATCCACCCTTAGAACGGAGTCACCTAGTGCAG,13100 fluorescence intensity (a.u.)
20,ATCGGGCGACCAATCTGAATGAGCCTCTATTTCTACTTCTCGGAGTCACCTAGTGCAG,8500 fluorescence intensity (a.u.)
21,ACTTGCACACACACTTGCTCCTCATTCCTCTCTCCTCTCCCGGAGTCACCTAGTGCAG,8150 fluorescence intensity (a.u.)

row,Sequence,binding signal
1,ACTGCCGCAGCCGTCATCACCGTCGACCTCACCGGCGCCGCGGAGTCACCTAGTGCAG,10500 fluorescence intensity (a.u.)
2,TATTCTCGCCACCTAGTATAAAAAATCATGGTACTTTGTTCGGAGTCACCTAGTGCAG,8660 fluorescence intensity (a.u.)
3,TAGCTCCAGTTATCTTTTAATTTTCCGCTGTATTTATGTACGGAGTCACCTAGTGCAG,12300 fluorescence intensity (a.u.)
4,AGGAAATTTTAGACCTTTCCATTTCTCTTCTTCTTAGCTACGGAGTCACCTAGTGCAG,9940 fluorescence intensity (a.u.)
5,TTGCTGCTTTCATGTTGCCGTTCTTGCTTGTTACAATTGACGGAGTCACCTAGTGCAG,10800 fluorescence intensity (a.u.)
6,GCTGGTCACATCACAAACACGTACACTCACACCGTTGCCTCGGAGTCACCTAGTGCAG,12300 fluorescence intensity (a.u.)
7,TGTCCTACTACTAACATTTTTGTTCCCATTTCGATACCCACGGAGTCACCTAGTGCAG,8090 fluorescence intensity (a.u.)
8,GTTGCAAAATTTTTCTTCAAACTCCTAATTTTTTCATCACCGGAGTCACCTAGTGCAG,14200 fluorescence intensity (a.u.)
9,AACCATCTATACGACTCTATCTTTTCATTACTTAGCAGTGCGGAGTCACCTAGTGCAG,8390 fluorescence intensity (a.u.)
10,GCTATTATCTTTTGTGTTAGCTATTTCTCTATGATATACCCGGAGTCACCTAGTGCAG,9530 fluorescence intensity (a.u.)
11,CCACTCATTCTCATTTACAAGTCATTTCCACTTTGACCATCGGAGTCACCTAGTGCAG,11700 fluorescence intensity (a.u.)
12,CCGCCGCCGCCAGCCTTCCTCGCATGCCCTCCTCTGACCTCGGAGTCACCTAGTGCAG,8330 fluorescence intensity (a.u.)
13,CGAGCTTTCACTTCTGCGAGGTTGTGTGTTCTTCTAGGGGCGGAGTCACCTAGTGCAG,8080 fluorescence intensity (a.u.)
14,ATCTCCACCTAACGAACACTCAGTCTTTTCTGCGTGAGGGCGGAGTCACCTAGTGCAG,9260 fluorescence intensity (a.u.)
15,TCGTTGCATTCCCACGCGTATTTAACACAACACTTTTAATCGGAGTCACCTAGTGCAG,9930 fluorescence intensity (a.u.)
16,GCGTATCCTTATCTGAATATTTGTTTACGTTTCGGCATCTCGGAGTCACCTAGTGCAG,13000 fluorescence intensity (a.u.)
17,CGCCTCGCTGTTGTCGCCGATCCGCCATGAGCTCGCCGGCCGGAGTCACCTAGTGCAG,9720 fluorescence intensity (a.u.)
18,TGCCCGTTCGGATCCGGCTAGCTAGCCTCCAGCTCGCCTTCGGAGTCACCTAGTGCAG,8800 fluorescence intensity (a.u.)
19,AAACCCGCCGCTTTGATTGTACTTGTGCTTTGCTGTTAAACGGAGTCACCTAGTGCAG,12600 fluorescence intensity (a.u.)
20,CTCGTCGTCATCGTCCTCTTCTTCGTCCTCATCGTCGTCGCGGAGTCACCTAGTGCAG,15500 fluorescence intensity (a.u.)
21,CCGCCGTGGTGCTCTCCTCGACATCCTTCTTCTCCTCATCCGGAGTCACCTAGTGCAG,8860 fluorescence intensity (a.u.)

row,Sequence,binding signal
1,ACATGTACTACTGCTCAACCGTACTTTTCAAGTTGCATTCCGGAGTCACCTAGTGCAG,9300 fluorescence intensity (a.u.)
2,GATTTATTATTATTATTTTGTGTGTGTGTGTAAAAATCGTCGGAGTCACCTAGTGCAG,8580 fluorescence intensity (a.u.)
3,AGTAATGTTCTATCCATATGCTCCAGTATGTACTTGTCAACGGAGTCACCTAGTGCAG,9400 fluorescence intensity (a.u.)
4,GGTGGGCTATAAATATAGTTGGGGAGGGGAGGGAAGACCCCGGAGTCACCTAGTGCAG,16700 fluorescence intensity (a.u.)
5,ACTTGAGAATTGGATTTACCAGTTTGAGGGGTTTTTTATTCGGAGTCACCTAGTGCAG,9510 fluorescence intensity (a.u.)
6,CGCGATGGAGCGGTATCCGTTCTTTCTTTTATATTTTTCTCGGAGTCACCTAGTGCAG,9490 fluorescence intensity (a.u.)
7,CTTGTTACTTGCAACTCTTTCTCTAATCTTGCTTCGGAAACGGAGTCACCTAGTGCAG,8370 fluorescence intensity (a.u.)
8,ACGACTGTAATTATTTTGGAACGGAGGTAGCAGTGATTTTCGGAGTCACCTAGTGCAG,11400 fluorescence intensity (a.u.)
9,GCACCCGTGCTTCGCCACTATCACCACCATCCTCGTCGGACGGAGTCACCTAGTGCAG,8630 fluorescence intensity (a.u.)
10,TTCCACAGCTTTCTTGAACTTCTCTTGTGCCTCACTCACTCGGAGTCACCTAGTGCAG,8170 fluorescence intensity (a.u.)
11,ACGAAAGTTATATTCTGCACCTGTTTTTTTAAATACTTTTCGGAGTCACCTAGTGCAG,10400 fluorescence intensity (a.u.)
12,TCCTAATCCAGCATTTGATCCTCCACTAATCCTACCAATTCGGAGTCACCTAGTGCAG,9650 fluorescence intensity (a.u.)
13,TTGGATTTGGGTTAATTTGCTTGATGTATGGTGGACGGATCGGAGTCACCTAGTGCAG,10200 fluorescence intensity (a.u.)
14,AGCCCTTGCTATTCAGGTTTCCTTTTATTGGGTACTAGTGCGGAGTCACCTAGTGCAG,9270 fluorescence intensity (a.u.)
15,GCAACGGGTATTCTCATCCTCGTTCTCTCCAATCCCATTCCGGAGTCACCTAGTGCAG,8680 fluorescence intensity (a.u.)
16,TTTCCATGTGTAACTCTAATCGATTATTTTGATCCTATAACGGAGTCACCTAGTGCAG,10700 fluorescence intensity (a.u.)
17,GTGGGGTGGCATGGTGAGTAATTTTTCACTCAATAATCTACGGAGTCACCTAGTGCAG,9320 fluorescence intensity (a.u.)
18,AGGTAGCGTGGCCTTTTTGTCCTTTTAGGTGGTGTTTGACCGGAGTCACCTAGTGCAG,10900 fluorescence intensity (a.u.)
19,CCTCATCACAAAATGTTTGACGCTGTTGACTTTTTTAAAACGGAGTCACCTAGTGCAG,15900 fluorescence intensity (a.u.)
20,CTATCTTGACCTCATCCCGTCGACTCCATGCCAATATGCCCGGAGTCACCTAGTGCAG,11800 fluorescence intensity (a.u.)
21,GACTCTCTCTCTCTCTCTCAAATCTACATCTATGATCTGTCGGAGTCACCTAGTGCAG,9630 fluorescence intensity (a.u.)

row,Sequence,binding signal
1,GTGTGGTCGTCGTGTCGGCGGCGGCGGCGGCGGCGGGAGGCGGAGTCACCTAGTGCAG,14300 fluorescence intensity (a.u.)
2,ATCCGTTTCAACAATCACCGCAGCACTCCTCTACCTTACTCGGAGTCACCTAGTGCAG,8440 fluorescence intensity (a.u.)
3,CTTCTTTTATTACTACTACTATGTTATTATATTTTATTCCCGGAGTCACCTAGTGCAG,10400 fluorescence intensity (a.u.)
4,GCCTAATGAGCTGCCACTTGTCCTAATGACTCCACATTTTCGGAGTCACCTAGTGCAG,11100 fluorescence intensity (a.u.)
5,GCCGGCGCTCCGACCAGCACTCGCCGTGCGTTTCTCTTGCCGGAGTCACCTAGTGCAG,9330 fluorescence intensity (a.u.)
6,AATTATTATTTATTTTATTTGTGACTTACTTTATTATCTACGGAGTCACCTAGTGCAG,8240 fluorescence intensity (a.u.)
7,TCCAAAGTACTCACTCGTACGATATCATTTCCTAAATTTACGGAGTCACCTAGTGCAG,8660 fluorescence intensity (a.u.)
8,GTGTTTATAGAGGTTGTCTGCCATAGTGCCCGTGTTCTCCCGGAGTCACCTAGTGCAG,8760 fluorescence intensity (a.u.)
9,CAGCCCATACCAGCCCAGCCCATTACCTCGCGGCTCGCGCCGGAGTCACCTAGTGCAG,9330 fluorescence intensity (a.u.)
10,ACCATAAAACCGGACATTCTTCACCCCTAACTATGTAATCCGGAGTCACCTAGTGCAG,11200 fluorescence intensity (a.u.)
11,ATAACTATAGTCATAGTTTTCCGCGTCCAACTTTAATTATCGGAGTCACCTAGTGCAG,8200 fluorescence intensity (a.u.)
12,GGTAGGGGAGGAGGAATAATGCAGGCAGGATGTTACTATGCGGAGTCACCTAGTGCAG,8930 fluorescence intensity (a.u.)
13,TTTAACACATATTTGCATCAACAAATATCCTCTTATTGAACGGAGTCACCTAGTGCAG,8080 fluorescence intensity (a.u.)
14,GCGGCCAGGCCACCTCCAGCTCTTTTCACTCCTGGCTAACCGGAGTCACCTAGTGCAG,9500 fluorescence intensity (a.u.)
15,CCGGTATTTCTGTGGTTAGGGGACGATTTTGTAACTCGATCGGAGTCACCTAGTGCAG,8660 fluorescence intensity (a.u.)
16,AATCATATTTTTATTCTGTCTTTGTATAGTCACCTTGTGACGGAGTCACCTAGTGCAG,8360 fluorescence intensity (a.u.)
17,TTGCTTGTTGATTGATTCGTTTTTGTCAATTTTGAAGTTTCGGAGTCACCTAGTGCAG,8470 fluorescence intensity (a.u.)
18,TCCTCCCCACTGCATCTGCCCGCCACTATTCTCGAGTCCCCGGAGTCACCTAGTGCAG,9940 fluorescence intensity (a.u.)
19,CACCGATAACTTTCTTGTTTTACTTACCCCTATCTTCATCCGGAGTCACCTAGTGCAG,8420 fluorescence intensity (a.u.)
20,TGCCTTTCTACACATACACCGGACATCTTTCTGAAATCTACGGAGTCACCTAGTGCAG,12100 fluorescence intensity (a.u.)
21,ATCTTTTGAGTTTTATACATACAAATTTTGTCATTTTTATCGGAGTCACCTAGTGCAG,8090 fluorescence intensity (a.u.)

# As a short view, some entries already given.
row,Sequence,binding signal
3,CTTCTTTTATTACTACTACTATGTTATTATATTTTATTCCCGGAGTCACCTAGTGCAG,10400 fluorescence intensity (a.u.)
4,GCCTAATGAGCTGCCACTTGTCCTAATGACTCCACATTTTCGGAGTCACCTAGTGCAG,11100 fluorescence intensity (a.u.)
5,GCCGGCGCTCCGACCAGCACTCGCCGTGCGTTTCTCTTGCCGGAGTCACCTAGTGCAG,9330 fluorescence intensity (a.u.)
6,AATTATTATTTATTTTATTTGTGACTTACTTTATTATCTACGGAGTCACCTAGTGCAG,8240 fluorescence intensity (a.u.)
7,TCCAAAGTACTCACTCGTACGATATCATTTCCTAAATTTACGGAGTCACCTAGTGCAG,8660 fluorescence intensity (a.u.)
8,GTGTTTATAGAGGTTGTCTGCCATAGTGCCCGTGTTCTCCCGGAGTCACCTAGTGCAG,8760 fluorescence intensity (a.u.)
9,CAGCCCATACCAGCCCAGCCCATTACCTCGCGGCTCGCGCCGGAGTCACCTAGTGCAG,9330 fluorescence intensity (a.u.)
10,ACCATAAAACCGGACATTCTTCACCCCTAACTATGTAATCCGGAGTCACCTAGTGCAG,11200 fluorescence intensity (a.u.)
11,ATAACTATAGTCATAGTTTTCCGCGTCCAACTTTAATTATCGGAGTCACCTAGTGCAG,8200 fluorescence intensity (a.u.)
12,GGTAGGGGAGGAGGAATAATGCAGGCAGGATGTTACTATGCGGAGTCACCTAGTGCAG,8930 fluorescence intensity (a.u.)
13,TTTAACACATATTTGCATCAACAAATATCCTCTTATTGAACGGAGTCACCTAGTGCAG,8080 fluorescence intensity (a.u.)
14,GCGGCCAGGCCACCTCCAGCTCTTTTCACTCCTGGCTAACCGGAGTCACCTAGTGCAG,9500 fluorescence intensity (a.u.)
